From PMC7819943, “Rice protein-binding microarrays: a tool to detect cis-acting elements near promoter regions in rice”
The list shows a part of the results.

The chains behind the UniProt entries cited, without tags or fusion partners.
UniProt Q0JBA9, entry or part of it: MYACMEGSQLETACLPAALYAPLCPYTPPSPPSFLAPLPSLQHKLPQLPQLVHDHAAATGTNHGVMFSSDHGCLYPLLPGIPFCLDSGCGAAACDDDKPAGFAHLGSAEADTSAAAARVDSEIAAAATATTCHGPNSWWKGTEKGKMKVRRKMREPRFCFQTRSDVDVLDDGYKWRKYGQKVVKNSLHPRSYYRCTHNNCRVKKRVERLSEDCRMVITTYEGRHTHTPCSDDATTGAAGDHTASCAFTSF

Target: OsWRKY34 (Oryza sativa, UniProt Q0JBA9 1-250)
Assay: protein-binding microarray (RPBM); PBS, 2% BSA, 51.3 ng/ul salmon testes DNA, 50 uM zinc acetate, 200 nM TF, 25 C, 1 h; high values mean tight binding
Conditions: protein: recombinant; tags: N-terminal polyhistidine and DsRed monomer fusion (pET32a); label: CyDye5-dUTP incorporated in the synthesized complementary strand; 3' TTTTT single-stranded linker to array surface; dsDNA, one strand shown
Outline: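 Polyhistidine-tagged DsRed fusions of transcription factors, joined at the N-terminus, were expressed in E. coli BL21-CodonPlus and isolated on Ni–NTA. They were incubated at 200 nM for 1 h at 25 °C on a custom Agilent array, double-stranded and BSA-blocked, in PBS with 2% BSA, salmon testes DNA and 50 µM zinc acetate. The binding signal is per-feature fluorescence intensity (arbitrary units) read on an Axon 4000B scanner after washing.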

Sequence | binding signal
GCAGCCAAGCTGAGATATCCTCCTGTGTGTTCTCCCGTTCCGGAGTCACCTAGTGCAG | 8780 fluorescence intensity (a.u.)
AAGCCAATTAACACTGCTATTATTTCTGTTATTATATTATCGGAGTCACCTAGTGCAG | 8300 fluorescence intensity (a.u.)
CACACACACATCCACACATATCTTTGGCTTCTCGTCTACACGGAGTCACCTAGTGCAG | 9680 fluorescence intensity (a.u.)
CTCGATACGCATCACATTTCTCACTTATTTGCTTTAGAGGCGGAGTCACCTAGTGCAG | 9630 fluorescence intensity (a.u.)
ATCGTCACCTATATAATCTATATATCCCCAACGTTTGCATCGGAGTCACCTAGTGCAG | 8250 fluorescence intensity (a.u.)
CGAATGGTCAAACATGTAGAAAAAAGTCAACGGTGTCATCCGGAGTCACCTAGTGCAG | 16900 fluorescence intensity (a.u.)
ATTGGTGTTGGTTGGTACGCTGGTTGGTGACCATGCAGTTCGGAGTCACCTAGTGCAG | 8320 fluorescence intensity (a.u.)
GCCACCATTTTTTTCTTTTGCAATTTTTTTCCATCGTTATCGGAGTCACCTAGTGCAG | 14300 fluorescence intensity (a.u.)
CGCCCATCGCCGCCACCGACCACTCCAACGCCGCCGCCGCCGGAGTCACCTAGTGCAG | 9180 fluorescence intensity (a.u.)
AAGAGCACACACACCACGTTTCCTCCACCAATAAATTCCACGGAGTCACCTAGTGCAG | 9340 fluorescence intensity (a.u.)
TATGGTTTCCTCAAGGGTATTTTGGGCATTATGAATTTTACGGAGTCACCTAGTGCAG | 10500 fluorescence intensity (a.u.)
ACTAGATTGCTGCTTCAACATCACTCATGTTTGCTCTTCGCGGAGTCACCTAGTGCAG | 8740 fluorescence intensity (a.u.)
GCCTTTGCCTTTGGCACCCGGCGCGCGTCCCGTCTCCCACCGGAGTCACCTAGTGCAG | 8860 fluorescence intensity (a.u.)
ATCCACGGTCACACACACTGGCTGGCACCGTCGCAGGCACCGGAGTCACCTAGTGCAG | 8300 fluorescence intensity (a.u.)
CCGTCTGCCGGTGCCCTTCTAGCCGAGCTCTCACCGGCCGCGGAGTCACCTAGTGCAG | 9600 fluorescence intensity (a.u.)
CATCATCATGTAGTTTTTTTTTACATCATCTAAAGGTTTTCGGAGTCACCTAGTGCAG | 10500 fluorescence intensity (a.u.)
AGACGTATTCCTGTATCCGCCTATCCGTATCTTGGTATCACGGAGTCACCTAGTGCAG | 8300 fluorescence intensity (a.u.)
TCATCTTTTTATTGCTACTGGATTGCATATATTTCTTTACCGGAGTCACCTAGTGCAG | 9550 fluorescence intensity (a.u.)
TATTAAGTCAACGGTTCATTTTGTTCAGTAATAATCATGGCGGAGTCACCTAGTGCAG | 10100 fluorescence intensity (a.u.)
TCTCTACTAAACCTTGCGTTACAACTTACAACTTGTCCTCCGGAGTCACCTAGTGCAG | 9300 fluorescence intensity (a.u.)
CTGTGAACCATTGATTTTTTTTACTATGAATTTTTTTGTTCGGAGTCACCTAGTGCAG | 8040 fluorescence intensity (a.u.)

Sequence | binding signal
CCGTCTCCTCGCGAGTTCGATCGCCCACCGCCTGAGCCGACGGAGTCACCTAGTGCAG | 8480 fluorescence intensity (a.u.)
GTCGTCGCCCAGTGCAATCTCGCAACCAATTTTCCACCGCCGGAGTCACCTAGTGCAG | 9400 fluorescence intensity (a.u.)
CGCATTCTCCACGACTCCACTAGGCACACTTTTTTTTCTCCGGAGTCACCTAGTGCAG | 10900 fluorescence intensity (a.u.)
TGGATGTTTGGTGATGCACTAGGGTTTGATGGGAGATGGACGGAGTCACCTAGTGCAG | 10600 fluorescence intensity (a.u.)
TCACCTGCCTCCCGCCGTCGAGATCACCCACGCCTGCTGTCGGAGTCACCTAGTGCAG | 8140 fluorescence intensity (a.u.)
AATCTATATTGTTTTTACATTTTCCATGTGGTTCGCATTCCGGAGTCACCTAGTGCAG | 10100 fluorescence intensity (a.u.)
ATGGGTCCCATTGCTCCTTTCCTGTTCCGTGCTTTGAGATCGGAGTCACCTAGTGCAG | 8250 fluorescence intensity (a.u.)
GTACCATTAAAAAGTTTTTCGTGCCATCTGACATTCGCCGCGGAGTCACCTAGTGCAG | 8430 fluorescence intensity (a.u.)
TACCCATATACTATAGCATCAAATCATTGACCAGCATTTACGGAGTCACCTAGTGCAG | 8430 fluorescence intensity (a.u.)
CTCTCACCTCACAAAAGTGCCCACGAAGAAGTGGTCAAAGCGGAGTCACCTAGTGCAG | 8250 fluorescence intensity (a.u.)
CTTCTAGAAGTTTCCGGGCGGGCGCGCTGCCCTCCAACGACGGAGTCACCTAGTGCAG | 8260 fluorescence intensity (a.u.)
GCCTAGAAGTATCGGCGACTTGTTTTTTTTGTTTGTTTTTCGGAGTCACCTAGTGCAG | 12800 fluorescence intensity (a.u.)
AGGGGCCCACCCACCCAAAGTTGACCGCGATGTTACGATGCGGAGTCACCTAGTGCAG | 8800 fluorescence intensity (a.u.)
TGTCATTTTCTCGTCGGCTTGCTTTGTTTGATTCCAGAGTCGGAGTCACCTAGTGCAG | 9240 fluorescence intensity (a.u.)
TAGCTGTCAGAAGTTCGATGGTTATTGGTTTTGTTGCTGCCGGAGTCACCTAGTGCAG | 9890 fluorescence intensity (a.u.)
CTCCGCTCGAGCCCCTCCGTTTTGATCCGATTCGCTCGCGCGGAGTCACCTAGTGCAG | 8110 fluorescence intensity (a.u.)
TCGCTCTCGCCCGCCGTCGCCATGCTCGCCCGCCGCCGCTCGGAGTCACCTAGTGCAG | 12800 fluorescence intensity (a.u.)
ATTCCATCCTGTTCTGTCATCCGTTTACACTTAAACACTCCGGAGTCACCTAGTGCAG | 8860 fluorescence intensity (a.u.)
AACCTTATGGTCAAATCTGTCAAACCCTTTTGTGCCATGTCGGAGTCACCTAGTGCAG | 9730 fluorescence intensity (a.u.)
GAGTTCCATCGTTTCGTTTCGTTTCGCTTAGCGTATCCTTCGGAGTCACCTAGTGCAG | 11900 fluorescence intensity (a.u.)
GTCTGTGAATGTTTTATTTGCCTTGTCTGAACTATCTTTACGGAGTCACCTAGTGCAG | 11400 fluorescence intensity (a.u.)

Single entries from the entries so far.
In binding signal, GTCGTCGCCCAGTGCAATCTCGCAACCAATTTTCCACCGCCGGAGTCACCTAGTGCAG has 9400 fluorescence intensity (a.u.)
In binding signal, GAGTTCCATCGTTTCGTTTCGTTTCGCTTAGCGTATCCTTCGGAGTCACCTAGTGCAG has 11900 fluorescence intensity (a.u.)
